Assay results reported in patent publication EP1602931A1, “SR-A antagonists” (Universiteit Leiden, priority 2004, dated 2005).
Part of at least one peptide drawing is inferred or uncertain, most often the ends. No end group written: not given here.

Target: T1, immobilized, biotinylated, synthetic, truncated SR-AI (Bos taurus, UniProt P21758)
T1 sequence (P21758 1-453): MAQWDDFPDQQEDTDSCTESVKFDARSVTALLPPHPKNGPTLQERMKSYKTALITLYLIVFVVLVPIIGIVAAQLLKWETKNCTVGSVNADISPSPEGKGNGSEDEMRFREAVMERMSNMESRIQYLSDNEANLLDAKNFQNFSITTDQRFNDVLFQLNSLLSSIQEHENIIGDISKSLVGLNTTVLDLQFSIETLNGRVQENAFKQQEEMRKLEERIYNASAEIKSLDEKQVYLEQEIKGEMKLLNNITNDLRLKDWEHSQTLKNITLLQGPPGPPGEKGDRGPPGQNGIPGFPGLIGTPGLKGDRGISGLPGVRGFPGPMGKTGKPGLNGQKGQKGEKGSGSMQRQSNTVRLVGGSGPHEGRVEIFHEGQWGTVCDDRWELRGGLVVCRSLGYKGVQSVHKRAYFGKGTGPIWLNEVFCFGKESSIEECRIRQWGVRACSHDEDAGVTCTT
Test: Competition of selected phage pool binding to immobilized synthetic SR-AI
Set-up: species or system bovine
Details: potency relative to poly I for inhibition of SR-AI binding
From the text: All peptides were synthesized on an automated peptide synthesizer (9050 Millipore, MA) using standard Fmoc solid-phase peptide synthesis. Crude peptides were purified on a preparative C8 RP-HPLC column (Altech, Deerfield, IL) using a JASCO PU-980 (Tokyo, Japan). Purified peptides were further characterized by LC-MS in Division of Analytical Biosciences, Leiden University. The purity of the peptide, as checked by MALDI-TOF mass spectrometry and RP-HPLC, was at least 70%. Lyophilized peptides were stored at -20°C under nitrogen until further use. Synthetic biotinylated bovine SR-AI was synthesized, purified and characterised as described by Suzuki et al. (Suzuki et al., 1999).
In analogy to the phage selection procedure, 10 µg/ml of streptavidin in coating buffer was incubated overnight at 4°C in a high-binding 96-well plate at 100 µl/well. Wells were washed 3x with assay buffer and incubated for 1 h at 37°C with blocking buffer. Next, wells were incubated for 2h at 37°C with 125 nM biotininylated SR-AI binding peptide (100 µl/well), washed 3x with binding buffer, after which the SR-AI ligands or synthetic SR-AI binding peptides (7, 9, 11, 13, 15 a. a.) were added and the solution (100 µl) was left to incubate for 2h at RT with the enriched phage pool (round 7) at 10^8 cfu. […] Residual phage binding was calculated from the output ratio.

LSLERFLRCWSDAPA [PP1, LSLERFLRCWSDAPA]
fold less potent than poly I: 5 fold
